Reference: patent publication US12535491B2, “Vaccine comprising protein-targeted (PT) extracellular DNA isolated from bacterial matrix” (priority 2018, dated 2026)

test system: heat-resistant proteins of human plasma; assay: LC/MS of heat-resistant proteins in plasma after exposure to proteinase K and boiling; conditions: LC/MS; healthy human blood plasma after incubation for 30 minutes with Proteinase K, following heating for 100° C. for 5 minutes (probe_2)

Molecule | N-plasma + pK
PZP_HUMAN (protein, UniProt P20742 26-1482, looked up) Pregnancy zone protein: TEPQYMVLVPSLLHTEAPKKGCVLLSHLNETVTVSASLESGRENRSLFTDLVAEKDLFHCVSFTLPRISASSEVAFLSIQIKGPTQDFRKRNTVLVLNTQSLVFVQTDKPMYKPGQTVRFRVVSVDENFRPRNELIPLIYLENPRRNRIAQWQSLKLEAGINQLSFPLSSEPIQGSYRVVVQTESGGRIQHPFTVEEFVLPKFEVKVQVPKIISIMDEKVNITVCGEYTYGKPVPGLATVSLCRKLSRVLNCDKQEVCEEFSQQLNSNGCITQQVHTKMLQITNTGFEMKLRVEARIREEGTDLEVTANRISEITNIVSKLKFVKVDSHFRQGIPFFAQVLLVDGKGVPIPNKLFFISVNDANYYSNATTNEQGLAQFSINTTSISVNKLFVRVFTVHPNLCFHYSWVAEDHQGAQHTANRVFSLSGSYIHLEPVAGTLPCGHTETITAHYTLNRQAMGELSELSFHYLIMAKGVIVRSGTHTLPVESGDMKGSFALSFPVESDVAPIARMFIFAILPDGEVVGDSEKFEIENCLANKVDLSFSPAQSPPASHAHLQVAAAPQSLCALRAVDQSVLLMKPEAELSVSSVYNLLTVKDLTNFPDNVDQQEEEQGHCPRPFFIHNGAIYVPLSSNEADIYSFLKGMGLKVFTNSKIRKPKSCSVIPSVSAGAVGQGYYGAGLGVVERPYVPQLGTYNVIPLNNEQSSGPVPETVRSYFPETWIWELVAVNSSGVAEVGVTVPDTITEWKAGAFCLSEDAGLGISSTASLRAFQPFFVELTMPYSVIRGEVFTLKATVLNYLPKCIRVSVQLKASPAFLASQNTKGEESYCICGNERQTLSWTVTPKTLGNVNFSVSAEAMQSLELCGNEVVEVPEIKRKDTVIKTLLVEAEGIEQEKTFSSMTCASGANVSEQLSLKLPSNVVKESARASFSVLGDILGSAMQNIQNLLQMPYGCGEQNMVLFAPNIYVLNYLNETQQLTQEIKAKAVGYLITGYQRQLNYKHQDGSYSTFGERYGRNQGNTWLTAFVLKTFAQARSYIFIDEAHITQSLTWLSQMQKDNGCFRSSGSLLNNAIKGGVEDEATLSAYVTIALLEIPLPVTNPIVRNALFCLESAWNVAKEGTHGSHVYTKALLAYAFSLLGKQNQNREILNSLDKEAVKEDNLVHWERPQRPKAPVGHLYQTQAPSAEVEMTSYVLLAYLTAQPAPTSGDLTSATNIVKWIMKQQNAQGGFSSTQDTVVALHALSRYGAATFTRTEKTAQVTVQDSQTFSTNFQVDNNNLLLLQQISLPELPGEYVITVTGERCVYLQTSMKYNILPEKEDSPFALKVQTVPQTCDGHKAHTSFQISLTISYTGNRPASNMVIVDVKMVSGFIPLKPTVKMLERSSSVSRTEVSNNHVLIYVEQVTNQTLSFSFMVLQDIPVGDLKPAIVKVYDYYETDESVVAEYIAPCSTDTEHGNV | 11
VTDB_HUMAN (protein, UniProt P02774 17-474, looked up) Vitamin D-binding protein: LERGRDYEKNKVCKEFSHLGKEDFTSLSLVLYSRKFPSGTFEQVSQLVKEVVSLTEACCAEGADPDCYDTRTSALSAKSCESNSPFPVHPGTAECCTKEGLERKLCMAALKHQPQEFPTYVEPTNDEICEAFRKDPKEYANQFMWEYSTNYGQAPLSLLVSYTKSYLSMVGSCCTSASPTVCFLKERLQLKHLSLLTTLSNRVCSQYAAYGEKKSRLSNLIKLAQKVPTADLEDVLPLAEDITNILSKCCESASEDCMAKELPEHTVKLCDNLSTKNSKFEDCCQEKTAMDVFVCTYFMPAAQLPELPDVELPTNKDVCDPGNTKVMDKYTFELSRRTHLPEVFLSKVLEPTLKSLGECCDVEDSTTCFNAKGPLLKKELSSFIDKGQELCADYSENTFTEYKKKLAERLKAKLPDATPTELAKLVNKHSDFASNCCSINSPPLYCDSEIDAELKNIL | 32
APOH_HUMAN (protein, UniProt P02749 20-345, looked up) Beta-2-glycoprotein 1: GRTCPKPDDLPFSTVVPLKTFYEPGEEITYSCKPGYVSRGGMRKFICPLTGLWPINTLKCTPRVCPFAGILENGAVRYTTFEYPNTISFSCNTGFYLNGADSAKCTEEGKWSPELPVCAPIICPPPSIPTFATLRVYKPSAGNNSLYRDTAVFECLPQHAMFGNDTITCTTHGNWTKLPECREVKCPFPSRPDNGFVNYPAKPTLYYKDKATFGCHDGYSLDGPEEIECTKLGNWSAMPSCKASCKVPVKKATVVYQGERVKIQEKFKNGMLHGDKVSFFCKNKEKKCSYTEDAQCIDGTIEVPKCFKEHSSLAFWKTDASDVKPC | 22
ITIH2_HUMAN (+1) (protein, UniProt P19823 55-702, looked up) Inter-alpha-trypsin inhibitor …: SLPGESEEMMEEVDQVTLYSYKVQSTITSRMATTMIQSKVVNNSPQPQNVVFDVQIPKGAFISNFSMTVDGKTFRSSIKEKTVGRALYAQARAKGKTAGLVRSSALDMENFRTEVNVLPGAKVQFELHYQEVKWRKLGSYEHRIYLQPGRLAKHLEVDVWVIEPQGLRFLHVPDTFEGHFDGVPVISKGQQKAHVSFKPTVAQQRICPNCRETAVDGELVVLYDVKREEKAGELEVFNGYFVHFFAPDNLDPIPKNILFVIDVSGSMWGVKMKQTVEAMKTILDDLRAEDHFSVIDFNQNIRTWRNDLISATKTQVADAKRYIEKIQPSGGTNINEALLRAIFILNEANNLGLLDPNSVSLIILVSDGDPTVGELKLSKIQKNVKENIQDNISLFSLGMGFDVDYDFLKRLSNENHGIAQRIYGNQDTSSQLKKFYNQVSTPLLRNVQFNYPHTSVTDVTQNNFHNYFGGSEIVVAGKFDPAKLDQIESVITATSANTQLVLETLAQMDDLQDFLSKDKHADPDFTRKLWAYLTINQLLAERSLAPTAAAKRRITRSILQMSLDHHIVTPLTSLVIENEAGDERMLADAPPQDPSCCSGALYYGSKVVPDSTPSWANPSPTPVISMLAQGSQVLESTPPPHVMRVEND | 24
CERU_HUMAN (protein, UniProt P00450 20-1065, looked up) Ceruloplasmin: KEKHYYIGIIETTWDYASDHGEKKLISVDTEHSNIYLQNGPDRIGRLYKKALYLQYTDETFRTTIEKPVWLGFLGPIIKAETGDKVYVHLKNLASRPYTFHSHGITYYKEHEGAIYPDNTTDFQRADDKVYPGEQYTYMLLATEEQSPGEGDGNCVTRIYHSHIDAPKDIASGLIGPLIICKKDSLDKEKEKHIDREFVVMFSVVDENFSWYLEDNIKTYCSEPEKVDKDNEDFQESNRMYSVNGYTFGSLPGLSMCAEDRVKWYLFGMGNEVDVHAAFFHGQALTNKNYRIDTINLFPATLFDAYMVAQNPGEWMLSCQNLNHLKAGLQAFFQVQECNKSSSKDNIRGKHVRHYYIAAEEIIWNYAPSGIDIFTKENLTAPGSDSAVFFEQGTTRIGGSYKKLVYREYTDASFTNRKERGPEEEHLGILGPVIWAEVGDTIRVTFHNKGAYPLSIEPIGVRFNKNNEGTYYSPNYNPQSRSVPPSASHVAPTETFTYEWTVPKEVGPTNADPVCLAKMYYSAVEPTKDIFTGLIGPMKICKKGSLHANGRQKDVDKEFYLFPTVFDENESLLLEDNIRMFTTAPDQVDKEDEDFQESNKMHSMNGFMYGNQPGLTMCKGDSVVWYLFSAGNEADVHGIYFSGNTYLWRGERRDTANLFPQTSLTLHMWPDTEGTFNVECLTTDHYTGGMKQKYTVNQCRRQSEDSTFYLGERTYYIAAVEVEWDYSPQREWEKELHHLQEQNVSNAFLDKGEFYIGSKYKKVVYRQYTDSTFRVPVERKAEEEHLGILGPQLHADVGDKVKIIFKNMATRPYSIHAHGVQTESSTVTPTLPGETLTYVWKIPERSGAGTEDSACIPWAYYSTVDQVKDLYSGLIGPLIVCRRPYLKVFNPRRKLEFALLFLVFDENESWYLDDNIKTYSDHPEKVNKDDEEFIESNKMHAINGRMFGNLQGLTMHVGDEVNWYLMGMGNEIDLHTVHFHGHSFQYKHRGVYSSDVFDIFPGTYQTLEMFPRTPGIWLLHCHVTDHIHAGMETTYTVLQNEDTKSG | 40
IGHG2_HUMAN (protein, UniProt P01859 1-395, looked up) Immunoglobulin heavy constant …: ASTKGPSVFPLAPCSRSTSESTAALGCLVKDYFPEPVTVSWNSGALTSGVHTFPAVLQSSGLYSLSSVVTVPSSNFGTQTYTCNVDHKPSNTKVDKTVERKCCVECPPCPAPPVAGPSVFLFPPKPKDTLMISRTPEVTCVVVDVSHEDPEVQFNWYVDGVEVHNAKTKPREEQFNSTFRVVSVLTVVHQDWLNGKEYKCKVSNKGLPAPIEKTISKTKGQPREPQVYTLPPSREEMTKNQVSLTCLVKGFYPSDISVEWESNGQPENNYKTTPPMLDSDGSFFLYSKLTVDKSRWQQGNVFSCSVMHEALHNHYTQKSLSLSPELQLEESCAEAQDGELDGLWTTITIFITLFLLSVCYSATITFFKVKWIFSSVVDLKQTIVPDYRNMIRQGA | 31
IGHG3_HUMAN (protein, UniProt P01860 1-446, looked up) Immunoglobulin heavy constant …: ASTKGPSVFPLAPCSRSTSGGTAALGCLVKDYFPEPVTVSWNSGALTSGVHTFPAVLQSSGLYSLSSVVTVPSSSLGTQTYTCNVNHKPSNTKVDKRVELKTPLGDTTHTCPRCPEPKSCDTPPPCPRCPEPKSCDTPPPCPRCPEPKSCDTPPPCPRCPAPELLGGPSVFLFPPKPKDTLMISRTPEVTCVVVDVSHEDPEVQFKWYVDGVEVHNAKTKPREEQYNSTFRVVSVLTVLHQDWLNGKEYKCKVSNKALPAPIEKTISKTKGQPREPQVYTLPPSREEMTKNQVSLTCLVKGFYPSDIAVEWESSGQPENNYNTTPPMLDSDGSFFLYSKLTVDKSRWQQGNIFSCSVMHEALHNRFTQKSLSLSPELQLEESCAEAQDGELDGLWTTITIFITLFLLSVCYSATVTFFKVKWIFSSVVDLKQTIIPDYRNMIGQGA | 25
